The target in test [1] is Flag-tagged HCV genotype 1a H77 NS2 (Hepatitis C virus genotype 1a, strain H77) (UniProt P27958). The experiment in a line: co-IP; 293T cells co-transfected with HA-SPCS1 and Flag-tagged H77- or JFH1-NS2; Flag co-immunoprecipitation.
Test [2] addresses Flag-tagged HCV genotype 2a JFH1 NS2 (Hepatitis C virus genotype 2a, strain JFH1) (UniProt Q99IB8). Described as above.

Sequences of proteins named here, by UniProt entry; tags and fusion partners are left off. Residues count along the entry.
UniProt P27958, residues 810-1026: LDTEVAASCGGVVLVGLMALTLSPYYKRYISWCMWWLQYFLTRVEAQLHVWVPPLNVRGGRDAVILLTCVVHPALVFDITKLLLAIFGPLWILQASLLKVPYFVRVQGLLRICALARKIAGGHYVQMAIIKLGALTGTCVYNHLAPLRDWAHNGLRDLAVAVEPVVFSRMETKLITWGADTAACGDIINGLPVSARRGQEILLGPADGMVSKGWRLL
UniProt Q99IB8, residues 814-1030: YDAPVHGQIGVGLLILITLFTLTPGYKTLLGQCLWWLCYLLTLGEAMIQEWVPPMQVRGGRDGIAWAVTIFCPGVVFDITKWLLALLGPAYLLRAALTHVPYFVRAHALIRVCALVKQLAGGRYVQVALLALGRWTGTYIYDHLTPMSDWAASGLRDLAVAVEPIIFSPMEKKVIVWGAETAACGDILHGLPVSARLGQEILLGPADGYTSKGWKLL

No constants are given. Whether binding was seen depends on the method and setting. Binding seen in cells or lysates may run through a third protein. Some binding calls cover weakened binding; strength is not graded here. Tags and fused reporters may be left off the sequences shown.

B1: HA-tagged signal peptidase complex subunit 1 (SPCS1) (protein, UniProt Q9Y6A9 1-169)
chain: MARGGDTGCTGPSETSASGAAAIALPGLEGPATDAQCQTLPLTVLKSRSPSPRSLPPALSCPPPQPAMLEHLSSLPTQMDYKGQKLAEQMFQGIILFSAIVGFIYGYVAEQFGWTVYIVMAGFAFSCLLTLPPWPIYRRHPLKWLPVQESSTDDKKPGERKIKRHAKNN
B1: the binding entry in test [1] and in test [2] was “binds” each time.
